Experimental data: article PMC8511012
No constants are given. Whether binding was seen depends on the method and setting. In cells and extracts the contact can be indirect. Some binding calls cover weakened binding; strength is not graded here. Sequences can lack the tags named with a protein.

Sequences of proteins named here, by UniProt entry; tags and fusion partners are left off.
UniProt Q9UKB1: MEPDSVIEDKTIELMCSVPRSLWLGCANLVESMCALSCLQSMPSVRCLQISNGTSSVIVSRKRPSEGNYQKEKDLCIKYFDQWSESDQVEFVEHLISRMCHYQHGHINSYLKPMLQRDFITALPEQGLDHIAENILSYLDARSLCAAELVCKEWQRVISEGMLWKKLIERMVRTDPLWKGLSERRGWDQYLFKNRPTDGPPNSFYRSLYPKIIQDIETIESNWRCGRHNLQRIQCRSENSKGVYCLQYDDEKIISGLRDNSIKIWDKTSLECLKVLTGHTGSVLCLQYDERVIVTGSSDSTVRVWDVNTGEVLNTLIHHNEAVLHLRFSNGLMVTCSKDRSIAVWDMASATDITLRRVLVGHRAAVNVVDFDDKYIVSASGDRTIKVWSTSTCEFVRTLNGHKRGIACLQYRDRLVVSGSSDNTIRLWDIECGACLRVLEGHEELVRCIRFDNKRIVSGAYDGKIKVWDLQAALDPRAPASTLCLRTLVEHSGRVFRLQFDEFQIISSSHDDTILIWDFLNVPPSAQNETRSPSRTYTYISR

How the values were obtained:
[1] = target: T1, Hypermethylated in cancer 1 (HIC1), HA-tagged (UniProt Q14526); experiment: co-IP; HEK-293T cells transfected with FLAG-tagged FBXW11 or HA-tagged HIC1, or both, for 48 h; lysates incubated with antibodies against FLAG tag or HA tag at 4 °C for 3 h; immunoprecipitates analysed by western blotting
T1 sequence: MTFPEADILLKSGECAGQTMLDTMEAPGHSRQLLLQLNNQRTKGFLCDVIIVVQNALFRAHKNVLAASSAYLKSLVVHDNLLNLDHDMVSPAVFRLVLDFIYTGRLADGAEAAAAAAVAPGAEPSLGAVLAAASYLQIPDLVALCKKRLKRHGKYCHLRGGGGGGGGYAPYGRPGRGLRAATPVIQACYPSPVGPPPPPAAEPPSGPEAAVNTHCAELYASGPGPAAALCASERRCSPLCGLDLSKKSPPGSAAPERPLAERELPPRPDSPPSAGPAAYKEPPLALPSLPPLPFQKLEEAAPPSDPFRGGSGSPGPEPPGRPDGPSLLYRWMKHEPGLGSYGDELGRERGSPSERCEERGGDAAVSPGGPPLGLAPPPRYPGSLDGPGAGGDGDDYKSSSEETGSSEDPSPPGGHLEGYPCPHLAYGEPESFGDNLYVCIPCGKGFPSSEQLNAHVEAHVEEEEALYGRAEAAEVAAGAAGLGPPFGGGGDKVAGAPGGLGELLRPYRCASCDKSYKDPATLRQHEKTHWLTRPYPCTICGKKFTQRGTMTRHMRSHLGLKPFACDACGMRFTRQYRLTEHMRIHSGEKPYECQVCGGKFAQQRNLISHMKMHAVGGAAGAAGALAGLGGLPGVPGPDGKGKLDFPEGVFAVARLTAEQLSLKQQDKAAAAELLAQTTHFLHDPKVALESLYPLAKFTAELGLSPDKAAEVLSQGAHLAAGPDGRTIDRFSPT

[2] = target: F-box and WD repeat domain containing 11 (FBXW11), FLAG-tagged (UniProt Q9UKB1); experiment: as above

F-box and WD repeat domain containing 11 (FBXW11), FLAG-tagged (from UniProt Q9UKB1 1-542)
binding [1]: binds

B1: Hypermethylated in cancer 1 (HIC1), HA-tagged (protein, UniProt Q14526 1-733)
chain: MTFPEADILLKSGECAGQTMLDTMEAPGHSRQLLLQLNNQRTKGFLCDVIIVVQNALFRAHKNVLAASSAYLKSLVVHDNLLNLDHDMVSPAVFRLVLDFIYTGRLADGAEAAAAAAVAPGAEPSLGAVLAAASYLQIPDLVALCKKRLKRHGKYCHLRGGGGGGGGYAPYGRPGRGLRAATPVIQACYPSPVGPPPPPAAEPPSGPEAAVNTHCAELYASGPGPAAALCASERRCSPLCGLDLSKKSPPGSAAPERPLAERELPPRPDSPPSAGPAAYKEPPLALPSLPPLPFQKLEEAAPPSDPFRGGSGSPGPEPPGRPDGPSLLYRWMKHEPGLGSYGDELGRERGSPSERCEERGGDAAVSPGGPPLGLAPPPRYPGSLDGPGAGGDGDDYKSSSEETGSSEDPSPPGGHLEGYPCPHLAYGEPESFGDNLYVCIPCGKGFPSSEQLNAHVEAHVEEEEALYGRAEAAEVAAGAAGLGPPFGGGGDKVAGAPGGLGELLRPYRCASCDKSYKDPATLRQHEKTHWLTRPYPCTICGKKFTQRGTMTRHMRSHLGLKPFACDACGMRFTRQYRLTEHMRIHSGEKPYECQVCGGKFAQQRNLISHMKMHAVGGAAGAAGALAGLGGLPGVPGPDGKGKLDFPEGVFAVARLTAEQLSLKQQDKAAAAELLAQTTHFLHDPKVALESLYPLAKFTAELGLSPDKAAEVLSQGAHLAAGPDGRTIDRFSPT
binding [2]: binds
